The list shows a part of the results. Shown are side measurements of this screen, not its main read-out; they come without a call. For part of these data: Compounds called inactive in the main read-out are mostly missing here. Numbered stars: 1 amine (or outer) side, 2 acyl side, 3 side chain; on linkers, the order of the positions; unused ones are H or OH. Bridge positions count the residues as written; N and C are the ends. Square brackets hold non-standard residues; d marks the D form. Peptide text beside a SMILES is read from it. * marks the point of attachment. ξ: configuration not given here. ΔAla(Z-3-ureido) = NC(=O)N/C=C(\N)C(=O)O; X2 = NC1=NCCC(C(N[*:1])C(=O)[*:2])N1; ξβ3hOrn = NCCCC(N)CC(=O)*; Dap = NC[CH](N)C(=O)O
Tests used:
PubChem AID 1586 = conditions: yeast two-hybrid polyglutamine protein interaction, reporter readout; measured here: averaged growth delta OD
[1] = selective SMN2 exon splicing luciferase activators – cell-based, SMN2/SMN1 luciferase reporters (AID 1598); conditions: SMN2 vs SMN1 luciferase splicing reporter cells, at 10 µM; SMN1 luciferase ratio: measured here: SMN1 luciferase reporter average; SMN2 luciferase ratio: measured here: SMN2 luciferase reporter average, stronger effect = higher value
[2] = rescue of PC12 cells from polyQ htt toxicity – LDH release (AID 1610); conditions: PC12 mutant huntingtin toxicity, final LDH at 4 uM, stronger effect = lower value

SMILES | signal change (36 h minus 0 h) (PubChem AID 1586) | SMN1 luciferase ratio [1] | SMN2 luciferase ratio [1] | normalised LDH release [2]
Cc1c(NC(=O)c2cccnc2)c(=O)n(-c2ccccc2)n1C | 0.105 | 0.94 | 0.89 | 0.839
O=C1c2c(O)ccc(O)c2C(=O)c2c(NCCNCCO)ccc(NCCNCCO)c21 | 0.144 | 0.06 | 0.31 | 0.744
Cn1c(=O)[nH]c2ncn(C)c2c1=O | 0.177 | 0.86 | 0.85 | 0.601
CC(C)[N+]1(C)C2CC[C@@H]1CC(OC(=O)C(CO)c1ccccc1)C2 (stereo partly specified) | 0.16 | 0.91 | 0.93 | 0.668
CCn1cc(C(=O)O)c(=O)c2cc3c(cc21)OCO3 | 0.107 | 0.86 | 0.89 | 0.912
CC(=O)[C@H]1CCC2C3C[C@H](C)C4=CC(=O)CC[C@]4(C)C3[C@@H](O)C[C@@]21C (stereo partly specified) | 0.0735 | 0.67 | 0.63 | 0.461
Cn1c([N+](=O)[O-])cnc1COC(N)=O | 0.128 | 0.95 | 0.92 | 0.935
CC(C)(C)NCC(O)c1ccc(O)c(CO)c1 (stereo unspecified) | 0.37 | 1 | 0.89 | 0.429
COc1ccc([C@@H]2CC(=O)c3c(O)cc(O[C@@H]4O[C@H](CO[C@H]5O[C@@H](C)[C@H](O)[C@@H](O)[C@H]5O)[C@@H](O)[C@H](O)[C@H]4O)cc3O2)cc1O | 0.24 | 0.92 | 0.95 | 0.8
Cc1cc(NC(=O)C2=C(O)c3ccccc3S(=O)(=O)N2C)no1 | 0.433 | 0.94 | 0.89 | 0.643
Cc1nnc(SCC2=C(C(=O)O)N3C(=O)[C@@H](NC(=O)Cn4cnnn4)[C@H]3SC2)s1 | 0.182 | 0.9 | 0.93 | 0.738
NCCNC(=O)c1ccc(Cl)cc1 | 0.0946 | 0.85 | 0.88 | 1.1
C[C@@H]1CC2C3CCC4=CC(=O)C=C[C@]4(C)[C@@]3(F)[C@@H](O)C[C@]2(C)[C@@]1(O)C(=O)CO (stereo partly specified) | 0.0527 | 0.89 | 0.98 | 0.476
NC(=O)c1ncn([C@@H]2O[C@H](CO)[C@@H](O)[C@H]2O)c1O | 0.0461 | 1.04 | 0.92 | 1.19
CCn1cc(C(=O)O)c(=O)c2cc(F)c(N3CCNCC3)nc21 | 0.209 | 0.91 | 0.96 | 1.47
CN(C)CCN(Cc1cccs1)c1ccccn1 | 0.346 | 0.92 | 0.94 | 1.22
CC(=O)[C@@]1(O)CCC2C3C=C(Cl)C4=CC(=O)[C@@H]5CC5[C@]4(C)C3CC[C@@]21C (stereo partly specified) | 0.176 | 0.96 | 1.01 | 1.07
CC(C)COCC(CN(Cc1ccccc1)c1ccccc1)N1CCCC1 (stereo unspecified) | 0.0803 | 0.81 | 0.86 | 0.978
CSc1ccc2c(c1)C(N1CCN(C)CC1)Cc1ccccc1S2 (stereo unspecified) | 0.259 | 0.91 | 0.93 | 1.52
CCN(Cc1ccncc1)C(=O)C(CO)c1ccccc1 (stereo unspecified) | 0.175 | 0.84 | 0.79 | 0.997
Nc1ncn([C@@H]2O[C@H](CO)[C@@H](O)[C@H]2O)c(=O)n1 | 0.197 | 0.72 | 0.92 | 0.367
CN1C[C@H](C(=O)N[C@]2(C)O[C@@]3(O)[C@@H]4CCCN4C(=O)[C@H](Cc4ccccc4)N3C2=O)C[C@@H]2c3cccc4[nH]cc(c34)C[C@H]21 | 0.114 | 0.96 | 0.93 | 1.27

SMILES | signal change (36 h minus 0 h) (PubChem AID 1586) | SMN1 luciferase ratio [1] | SMN2 luciferase ratio [1] | normalised LDH release [2]
NCCCC(N)CC(=O)NCC1NC(=O)C(CO)NC(=O)C(N)CNC(=O)C(C2CCN=C(N)N2)NC(=O)/C(=C/NC(N)=O)NC1=O (stereo not drawn) (H-[Dap]S[Dap](ξβ3hOrn)[ΔAla(Z-3-ureido)][X2]; lactam 1-C; configuration not given here) | 0.146 | 0.92 | 0.92 | 1.73
COC(=O)C(C)C[N+](C)(C)C (stereo unspecified) | 0.116 | 0.92 | 0.83 | 0.982
O=C(O)c1cccnc1Nc1cccc(C(F)(F)F)c1 | 0.035 | 0.9 | 0.91 | 1.08
Cc1cc(NS(=O)(=O)c2ccc(N)cc2)no1 | 0.239 | 0.94 | 0.97 | 0.967
CCN(CC)C(C)CN1c2ccccc2Sc2ccccc21 (stereo unspecified) | 0.355 | 0.86 | 0.95 | 0.795
CCN(CC)Cc1ccc(Nc2ccnc3cc(Cl)ccc23)cc1O | 0.0679 | 0.91 | 0.84 | 0.875
CCN(CC)CCNC(=O)c1ccc(N)cc1 | 0.121 | 0.98 | 0.95 | 0.973
C=C(C)[C@H]1CC=C(C(=O)O)CC1 | 0.084 | 0.89 | 0.89 | 0.791
O=C1CCC(N2C(=O)c3ccccc3C2=O)C(=O)N1 (stereo unspecified) | 0.19 | 0.91 | 0.9 | 0.872
CCCCCCCCCCCCC[N+](C)(C)Cc1ccccc1 | 0.129 | 0.32 | 0.37 | 0.616
O[N+]1=CC=CCC1=S.On1ccccc1=S.[Zn] | -0.00665 |  |  | 0.876
C[C@@H]1O[C@@H](O[C@H]2[C@H](Oc3cc(O)c4c(c3)O[C@H](c3ccc(O)cc3)CC4=O)O[C@H](CO)[C@@H](O)[C@@H]2O)[C@H](O)[C@H](O)[C@H]1O | 0.175 | 0.97 | 0.88 | 1.06
CN1C2CC[C@H]1CC(OC(=O)C(O)c1ccccc1)C2 (stereo partly specified) | 0.0326 |  |  | 0.929
NC12CC3CC(CC(C3)C1)C2 | 0.0749 |  |  | 1.1
CCCOc1ccc2nc(NC(=O)OC)[nH]c2c1 | 0.149 | 1.43 | 1.1 | 1.01
NS(=O)(=O)c1cc2c(cc1Cl)NC(C1CC3C=CC1C3)NS2(=O)=O (stereo unspecified) | 0.154 | 0.92 | 0.91 | 1.11
CO[C@@]1(NC(=O)Cc2cccs2)C(=O)N2C(C(=O)O)=C(COC(N)=O)CS[C@@H]21 | 0.203 |  |  | 1.06
CC(Oc1ccccc1)C(=O)NC1C(=O)N2C(C(=O)O)C(C)(C)S[C@H]12 (stereo partly specified) | 0.199 | 0.96 | 1.01 | 1.57
O=C(O)CCC(=O)Nc1ccc(S(=O)(=O)Nc2nccs2)cc1 | 0.321 | 0.92 | 1.02 | 1.04
O=S(=O)(O)CCS | 0.119 | 0.91 | 0.86 | 0.951
C=C[C@H]1CN2CC[C@H]1C[C@@H]2[C@H](O)c1ccnc2ccc(OC)cc12 | 0.198 | 0.89 | 0.91 | 0.866
CC(=O)Nc1ccc(OCC(O)CNC(C)C)cc1 (stereo unspecified) | 0.583 | 0.91 | 0.94 | 0.224

SMILES | signal change (36 h minus 0 h) (PubChem AID 1586) | SMN1 luciferase ratio [1] | SMN2 luciferase ratio [1] | normalised LDH release [2]
CC(C(=O)O)c1ccc(N2Cc3ccccc3C2=O)cc1 (stereo unspecified) | 0.185 |  |  | 0.937
CCCCCCCCCCCCCCCC(=O)OC/C=C(C)/C=C/C=C(C)/C=C/C1=C(C)CCCC1(C)C | 0.346 | 0.84 | 0.92 | 0.879
COc1c(OC)c2occc2c2oc(=O)ccc12 | 0.303 | 0.81 | 0.9 | 0.943
CN1C2CCC1CC(OC(=O)C(CO)c1ccccc1)C2 (stereo unspecified) | 0.0806 | 0.86 | 0.88 | 1.35
COc1ccc2c(c1)c(CC(=O)OCC(=O)O)c(C)n2C(=O)c1ccc(Cl)cc1 | 0.166 | 0.88 | 0.96 | 1.07
OCCN1CCN(CCCN2c3ccccc3Sc3ccc(C(F)(F)F)cc32)CC1 | 0.163 | 0.92 | 0.91 | 0.83
C[C@]12CCC3c4ccc(O)cc4CCC3C1C[C@@H](O)[C@@H]2O (stereo partly specified) | 0.0622 | 0.98 | 0.8 | 0.768
CC(=O)OCC(=O)[C@@]1(O)CCC2C3CCC4=CC(=O)CC[C@]4(C)C3[C@@H](O)C[C@@]21C (stereo partly specified) | 0.0543 | 0.86 | 0.88 | 0.409
NNC(=O)c1ccncc1 | 0.0249 | 0.81 | 0.87 | 0.879
Cc1ccsc1/C=C/C1=NCCCN1C | 0.146 | 0.96 | 0.91 | 0.52
NC(=O)c1ccccc1O | 0.0868 | 0.89 | 0.97 | 1.11
Cc1cccc(C)c1OCC(C)N (stereo unspecified) | 0.0693 | 0.94 | 0.87 | 0.984
OCc1ccccc1O | 0.0355 | 0.95 | 1 | 1.04
CCCNC(C)C(=O)Nc1ccccc1C (stereo unspecified) | 0.286 | 0.96 | 0.91 | 0.842
CCCCCCCCNC(C)C(O)c1ccc(SC(C)C)cc1 (stereo unspecified) | 0.159 | 0.89 | 0.9 | 0.794
CC(=O)CCC1C2=NC(=C\C3=NC(=C(/C)C4=NC(C)(C5[N-]/C(=C\2C)C(C)(CCC(=O)NCC(C)OP(=O)(O)O[C@@H]2[C@@H](CO)OC(n6cnc7cc(C)c(C)cc76)[C@@H]2O)C5CC(N)=O)C(C)(CC(N)=O)C4CCC(N)=O)/C(C)(CC(N)=O)C3CCC(N)=O)/C1(C)C.[CH2-][C@H]1OC(n2cnc3c(N)ncnc32)[C@H](O)[C@@H]1O.[Co+2] (stereo partly specified) | 0.176 | 0.97 | 1.07 | 0.561
O=C(/C=C/C=C/c1ccc2c(c1)OCO2)N1CCCCC1 | 0.0359 | 1.21 | 1.17 | 0.974
CCCCCC(=O)O[C@]1(C(C)=O)CCC2C3CCC4=CC(=O)CC[C@]4(C)C3CC[C@@]21C (stereo partly specified) | -0.181 | 0.82 | 0.88 | 0.823
Nc1nccs1 | 0.167 | 0.79 | 0.94 | 1.21
CO[C@H]1/C=C/O[C@@]2(C)Oc3c(C)c(O)c4c(O)c(c(C=NN5CCN(C)CC5)c(O)c4c3C2=O)NC(=O)/C(C)=C\C=C\C(C)[C@H](O)[C@@H](C)[C@@H](O)[C@@H](C)[C@@H](OC(C)=O)[C@@H]1C (stereo partly specified) | 0.187 | 0.91 | 0.85 | 0.638

Three of these compounds in a different format.

| SMILES | signal change (36 h minus 0 h) (PubChem AID 1586) | SMN1 luciferase ratio [1] | SMN2 luciferase ratio [1] | normalised LDH release [2] |
| --- | --- | --- | --- | --- |
| CC(=O)[C@@]1(O)CCC2C3C=C(Cl)C4=CC(=O)[C@@H]5CC5[C@]4(C)C3CC[C@@]21C (stereo partly specified) | 0.176 | 0.96 | 1.01 | 1.07 |
| CCN(Cc1ccncc1)C(=O)C(CO)c1ccccc1 (stereo unspecified) | 0.175 | 0.84 | 0.79 | 0.997 |
| NNC(=O)c1ccncc1 | 0.0249 | 0.81 | 0.87 | 0.879 |

From PubChem BioAssay
